Laboratory results from the supplement of paper PMC10849652.
Some of the results follow.

Sequences of proteins named here, by UniProt entry; tags and fusion partners are left off. A change or cut given only in a name is not applied to a line headed by its entry.
UniProt O60551: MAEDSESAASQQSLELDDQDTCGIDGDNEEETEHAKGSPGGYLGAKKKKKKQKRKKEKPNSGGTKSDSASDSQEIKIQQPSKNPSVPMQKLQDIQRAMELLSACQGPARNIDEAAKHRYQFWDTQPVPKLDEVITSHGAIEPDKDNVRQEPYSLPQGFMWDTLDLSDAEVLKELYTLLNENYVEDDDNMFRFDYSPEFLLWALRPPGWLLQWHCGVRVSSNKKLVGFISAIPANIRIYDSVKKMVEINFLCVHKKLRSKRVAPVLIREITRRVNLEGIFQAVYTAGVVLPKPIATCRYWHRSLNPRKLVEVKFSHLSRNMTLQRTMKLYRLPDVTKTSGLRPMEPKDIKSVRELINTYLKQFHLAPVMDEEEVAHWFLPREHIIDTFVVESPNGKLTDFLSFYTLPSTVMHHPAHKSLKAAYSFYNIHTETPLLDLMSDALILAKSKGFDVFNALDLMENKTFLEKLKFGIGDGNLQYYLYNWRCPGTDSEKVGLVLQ
UniProt Q8NC60: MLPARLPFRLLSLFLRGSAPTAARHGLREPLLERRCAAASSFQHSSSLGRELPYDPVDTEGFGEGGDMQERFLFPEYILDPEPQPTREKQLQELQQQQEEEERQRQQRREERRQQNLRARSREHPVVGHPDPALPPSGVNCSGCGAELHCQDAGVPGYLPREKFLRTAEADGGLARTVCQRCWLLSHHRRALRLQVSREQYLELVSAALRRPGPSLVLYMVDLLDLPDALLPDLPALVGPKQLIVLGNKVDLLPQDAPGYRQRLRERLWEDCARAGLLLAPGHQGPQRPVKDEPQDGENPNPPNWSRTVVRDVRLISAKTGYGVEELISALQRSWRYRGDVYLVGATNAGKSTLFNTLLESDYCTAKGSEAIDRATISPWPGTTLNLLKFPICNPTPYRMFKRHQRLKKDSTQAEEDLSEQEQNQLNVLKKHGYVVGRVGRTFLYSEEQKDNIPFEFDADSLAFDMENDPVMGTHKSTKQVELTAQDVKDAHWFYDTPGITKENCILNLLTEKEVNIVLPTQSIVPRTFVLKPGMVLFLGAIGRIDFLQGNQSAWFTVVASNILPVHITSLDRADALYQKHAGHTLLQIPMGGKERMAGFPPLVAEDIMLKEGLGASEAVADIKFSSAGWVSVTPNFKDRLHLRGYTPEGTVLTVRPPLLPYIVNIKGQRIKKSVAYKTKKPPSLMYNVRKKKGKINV
UniProt Q14934: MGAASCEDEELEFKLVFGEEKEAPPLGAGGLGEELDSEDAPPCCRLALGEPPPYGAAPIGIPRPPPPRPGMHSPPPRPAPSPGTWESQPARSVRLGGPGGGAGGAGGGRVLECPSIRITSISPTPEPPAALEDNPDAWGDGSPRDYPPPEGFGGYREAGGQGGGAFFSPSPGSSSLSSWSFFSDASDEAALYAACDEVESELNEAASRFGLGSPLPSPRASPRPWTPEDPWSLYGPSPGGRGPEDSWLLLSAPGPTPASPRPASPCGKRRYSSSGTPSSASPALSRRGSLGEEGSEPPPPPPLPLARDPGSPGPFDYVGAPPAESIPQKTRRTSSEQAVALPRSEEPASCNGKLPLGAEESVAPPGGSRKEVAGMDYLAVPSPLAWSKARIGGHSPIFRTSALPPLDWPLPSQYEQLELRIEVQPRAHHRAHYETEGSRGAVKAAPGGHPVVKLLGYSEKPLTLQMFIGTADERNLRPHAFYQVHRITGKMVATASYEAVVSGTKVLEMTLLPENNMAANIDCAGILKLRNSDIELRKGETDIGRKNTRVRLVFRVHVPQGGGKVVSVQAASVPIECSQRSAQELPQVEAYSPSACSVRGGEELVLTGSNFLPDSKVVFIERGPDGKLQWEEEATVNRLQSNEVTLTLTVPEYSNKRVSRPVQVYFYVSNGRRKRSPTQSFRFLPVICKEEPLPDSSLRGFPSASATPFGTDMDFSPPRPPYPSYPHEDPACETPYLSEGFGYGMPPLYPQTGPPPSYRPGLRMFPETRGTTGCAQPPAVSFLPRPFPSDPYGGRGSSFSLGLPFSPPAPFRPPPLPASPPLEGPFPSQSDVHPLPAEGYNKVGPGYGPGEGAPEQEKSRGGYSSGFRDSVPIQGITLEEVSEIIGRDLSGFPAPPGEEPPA
UniProt O60936: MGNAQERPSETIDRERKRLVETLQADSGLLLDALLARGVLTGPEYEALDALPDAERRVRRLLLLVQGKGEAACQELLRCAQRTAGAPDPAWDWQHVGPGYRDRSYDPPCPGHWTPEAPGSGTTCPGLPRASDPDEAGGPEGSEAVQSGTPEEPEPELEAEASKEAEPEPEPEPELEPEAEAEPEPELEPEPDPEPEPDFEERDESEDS
UniProt P06748, whole entry, looked up: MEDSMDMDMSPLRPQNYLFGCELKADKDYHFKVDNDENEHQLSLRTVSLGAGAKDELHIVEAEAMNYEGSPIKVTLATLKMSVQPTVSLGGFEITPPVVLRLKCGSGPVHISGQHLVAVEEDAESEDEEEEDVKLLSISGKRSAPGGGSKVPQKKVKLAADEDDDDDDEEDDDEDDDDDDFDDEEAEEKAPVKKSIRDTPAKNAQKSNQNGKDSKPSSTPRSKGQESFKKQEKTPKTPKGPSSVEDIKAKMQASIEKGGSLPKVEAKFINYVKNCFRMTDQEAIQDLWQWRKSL
UniProt P61916: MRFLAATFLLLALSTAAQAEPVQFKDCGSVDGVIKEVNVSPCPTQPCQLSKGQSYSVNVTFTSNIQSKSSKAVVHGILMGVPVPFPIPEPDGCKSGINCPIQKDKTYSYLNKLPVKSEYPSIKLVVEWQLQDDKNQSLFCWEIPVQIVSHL
UniProt Q96IV0: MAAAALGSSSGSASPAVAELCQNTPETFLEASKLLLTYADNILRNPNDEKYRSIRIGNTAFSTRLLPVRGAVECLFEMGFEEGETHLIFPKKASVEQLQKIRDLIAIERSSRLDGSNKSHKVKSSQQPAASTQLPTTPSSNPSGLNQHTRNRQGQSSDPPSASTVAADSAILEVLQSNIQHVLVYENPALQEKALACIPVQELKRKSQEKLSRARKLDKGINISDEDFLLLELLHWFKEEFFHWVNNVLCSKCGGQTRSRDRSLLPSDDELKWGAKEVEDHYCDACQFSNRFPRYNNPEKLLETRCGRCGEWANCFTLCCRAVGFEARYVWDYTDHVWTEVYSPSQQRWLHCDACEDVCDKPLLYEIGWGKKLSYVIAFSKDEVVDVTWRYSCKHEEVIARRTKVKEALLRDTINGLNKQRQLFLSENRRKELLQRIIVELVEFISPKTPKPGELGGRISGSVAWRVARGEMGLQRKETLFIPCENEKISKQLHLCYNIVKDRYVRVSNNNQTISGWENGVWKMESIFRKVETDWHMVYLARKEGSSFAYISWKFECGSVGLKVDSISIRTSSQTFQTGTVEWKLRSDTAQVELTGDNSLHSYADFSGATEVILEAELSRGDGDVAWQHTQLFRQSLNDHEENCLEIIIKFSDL
UniProt P78316: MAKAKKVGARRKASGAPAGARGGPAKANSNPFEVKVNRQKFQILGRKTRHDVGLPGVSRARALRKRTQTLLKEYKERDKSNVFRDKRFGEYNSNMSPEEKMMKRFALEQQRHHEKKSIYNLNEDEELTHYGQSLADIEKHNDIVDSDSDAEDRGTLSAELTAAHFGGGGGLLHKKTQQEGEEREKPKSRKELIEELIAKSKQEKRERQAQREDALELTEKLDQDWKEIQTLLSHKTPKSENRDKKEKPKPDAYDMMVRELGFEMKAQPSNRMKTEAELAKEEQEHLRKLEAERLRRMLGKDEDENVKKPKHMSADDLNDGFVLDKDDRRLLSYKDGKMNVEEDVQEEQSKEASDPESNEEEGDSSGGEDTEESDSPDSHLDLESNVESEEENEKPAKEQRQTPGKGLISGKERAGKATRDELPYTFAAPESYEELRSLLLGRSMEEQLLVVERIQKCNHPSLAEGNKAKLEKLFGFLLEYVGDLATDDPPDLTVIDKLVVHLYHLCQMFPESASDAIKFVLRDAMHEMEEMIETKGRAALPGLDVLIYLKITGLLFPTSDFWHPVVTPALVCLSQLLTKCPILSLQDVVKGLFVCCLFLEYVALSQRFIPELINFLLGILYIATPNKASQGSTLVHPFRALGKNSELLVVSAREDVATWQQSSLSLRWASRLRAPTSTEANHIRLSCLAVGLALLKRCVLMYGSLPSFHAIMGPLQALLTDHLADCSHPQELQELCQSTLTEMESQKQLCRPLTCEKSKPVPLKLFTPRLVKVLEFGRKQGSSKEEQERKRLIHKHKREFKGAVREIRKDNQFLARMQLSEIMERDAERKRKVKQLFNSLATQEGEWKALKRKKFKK
UniProt Q9Y239: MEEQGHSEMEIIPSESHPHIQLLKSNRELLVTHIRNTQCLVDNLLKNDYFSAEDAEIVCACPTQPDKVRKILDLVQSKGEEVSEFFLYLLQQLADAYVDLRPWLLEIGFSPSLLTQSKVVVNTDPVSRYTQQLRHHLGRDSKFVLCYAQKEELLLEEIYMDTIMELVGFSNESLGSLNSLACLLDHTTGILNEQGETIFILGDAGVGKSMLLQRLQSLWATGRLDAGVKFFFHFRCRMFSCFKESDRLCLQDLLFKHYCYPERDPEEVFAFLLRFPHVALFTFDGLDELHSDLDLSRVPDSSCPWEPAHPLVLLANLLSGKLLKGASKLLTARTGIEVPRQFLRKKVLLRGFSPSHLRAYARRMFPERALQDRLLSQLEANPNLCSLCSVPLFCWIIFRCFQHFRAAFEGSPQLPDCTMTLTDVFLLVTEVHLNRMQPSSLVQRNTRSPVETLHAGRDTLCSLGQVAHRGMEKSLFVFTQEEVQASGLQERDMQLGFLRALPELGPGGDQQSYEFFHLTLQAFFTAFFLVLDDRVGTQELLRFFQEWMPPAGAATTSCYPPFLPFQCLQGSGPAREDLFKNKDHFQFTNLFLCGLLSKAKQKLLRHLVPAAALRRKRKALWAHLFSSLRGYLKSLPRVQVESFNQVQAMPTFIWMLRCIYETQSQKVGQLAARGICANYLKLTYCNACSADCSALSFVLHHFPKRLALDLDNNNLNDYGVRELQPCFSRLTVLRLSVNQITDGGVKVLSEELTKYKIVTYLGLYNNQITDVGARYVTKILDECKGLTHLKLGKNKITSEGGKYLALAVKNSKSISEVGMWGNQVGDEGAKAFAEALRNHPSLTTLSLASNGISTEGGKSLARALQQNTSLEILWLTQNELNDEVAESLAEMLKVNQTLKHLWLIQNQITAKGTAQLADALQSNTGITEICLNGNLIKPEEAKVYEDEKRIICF
UniProt Q9H6R4: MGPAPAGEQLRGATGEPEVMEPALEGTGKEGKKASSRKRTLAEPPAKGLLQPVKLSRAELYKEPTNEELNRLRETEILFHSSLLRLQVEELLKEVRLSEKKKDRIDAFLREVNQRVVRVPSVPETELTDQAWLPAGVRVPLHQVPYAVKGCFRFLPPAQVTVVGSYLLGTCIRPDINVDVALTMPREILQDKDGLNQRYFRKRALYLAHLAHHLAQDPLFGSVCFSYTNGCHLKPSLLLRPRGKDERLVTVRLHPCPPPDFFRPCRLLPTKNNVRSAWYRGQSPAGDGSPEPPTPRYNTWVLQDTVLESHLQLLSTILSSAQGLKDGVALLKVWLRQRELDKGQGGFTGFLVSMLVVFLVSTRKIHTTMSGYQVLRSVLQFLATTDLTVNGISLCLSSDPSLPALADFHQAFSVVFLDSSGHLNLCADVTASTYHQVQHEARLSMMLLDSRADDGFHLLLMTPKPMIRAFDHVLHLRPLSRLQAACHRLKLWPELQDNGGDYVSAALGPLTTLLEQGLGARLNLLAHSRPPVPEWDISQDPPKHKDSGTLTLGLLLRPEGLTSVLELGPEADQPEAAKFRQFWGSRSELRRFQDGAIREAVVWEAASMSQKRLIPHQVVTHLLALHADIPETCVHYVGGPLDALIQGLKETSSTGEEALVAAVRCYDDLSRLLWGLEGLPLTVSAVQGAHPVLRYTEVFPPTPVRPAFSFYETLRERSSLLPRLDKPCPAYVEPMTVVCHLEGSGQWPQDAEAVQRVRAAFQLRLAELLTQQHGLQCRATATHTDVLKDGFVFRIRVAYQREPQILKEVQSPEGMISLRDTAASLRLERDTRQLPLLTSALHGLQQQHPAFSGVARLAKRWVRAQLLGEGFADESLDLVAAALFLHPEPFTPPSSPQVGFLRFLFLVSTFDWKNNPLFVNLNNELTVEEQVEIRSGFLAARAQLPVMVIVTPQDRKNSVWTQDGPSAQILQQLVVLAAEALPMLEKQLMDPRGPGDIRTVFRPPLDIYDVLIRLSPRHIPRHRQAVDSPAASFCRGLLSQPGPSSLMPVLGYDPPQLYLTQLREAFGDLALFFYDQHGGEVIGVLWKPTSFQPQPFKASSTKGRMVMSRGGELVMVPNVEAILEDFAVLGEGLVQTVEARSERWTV

Key:
Experiment in all cases: log2 fold change, soluble protein after heating vs DMSO (PISA); higher = thermal stabilisation; K562 cells, 10 uM, 30 min; active = over 0.2 and 3.5 SD of the protein, either way, in both replicates (recomputed)
[1] = compound: CS(=O)(=O)c1ccc(-c2cnc(N)c(C(=O)Nc3ccccc3)n2)cc1
How it was run: (§1)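 K562 cells at 2×10^6 cells/mL were treated for 30 min with 10 μM compound, and aliquots were heated for 3 min over 48°C-58°C before pooling. Extraction used PBS with 0.5% NP-40 at 4°C, and soluble protein was the supernatant after 21,000xg for 90 min, measured by TMTpro 16plex LC-MS/MS with channel sums equalised. Thermal stability values, relative to control samples and from duplicates, are log2 fold changes.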

crizotinib = compound: C[C@@H](Oc1cc(-c2cnn(C3CCNCC3)c2)cnc1N)c1c(Cl)ccc(F)c1Cl [crizotinib]
How it was run: as §1

[2] = compound: C[C@@H]1COCCN1C2=NC(=NC(=C2)C3(CC3)S(=O)(=O)C)C4=C5C=CNC5=CC=C4
How it was run: as §1

[3] = compound: C[C@H](C1=CC=C(C=C1)C(=O)NC2=C3C=CNC3=NC=C2)N
How it was run: as §1

gandotinib = compound: Cc1cc(Nc2cc(CN3CCOCC3)c3nc(C)c(Cc4ccc(Cl)cc4F)n3n2)n[nH]1 [gandotinib]
How it was run: as §1

[4] = compound: Cc1cc(SCc2sc(-c3ccc(C(F)(F)F)cc3)nc2C)ccc1OCC(=O)O
How it was run: as §1

doramapimod = compound: Cc1ccc(-n2nc(C(C)(C)C)cc2NC(=O)Nc2ccc(OCCN3CCOCC3)c3ccccc23)cc1 [doramapimod]
How it was run: as §1

ispinesib = compound: Cc1ccc(C(=O)N(CCCN)[C@@H](c2nc3cc(Cl)ccc3c(=O)n2Cc2ccccc2)C(C)C)cc1 [ispinesib]
How it was run: as §1

bafetinib = compound: Cc1ccc(NC(=O)c2ccc(CN3CC[C@H](N(C)C)C3)c(C(F)(F)F)c2)cc1Nc1nccc(-c2cncnc2)n1 [bafetinib]
How it was run: as §1

[5] = compound: Cc1cccc(CC(=O)N2CCc3c2ccc(-c2cn(C)c4ncnc(N)c24)c3F)n1
How it was run: as §1

nilotinib = compound: Cc1cn(-c2cc(NC(=O)c3ccc(C)c(Nc4nccc(-c5cccnc5)n4)c3)cc(C(F)(F)F)c2)cn1 [nilotinib]
How it was run: as §1

[6] = compound: Cc1nc(Nc2n[nH]c3c2CN(C(=O)N[C@H](CN(C)C)c2ccccc2)C3(C)C)c2sccc2n1
How it was run: as §1

dasatinib = compound: Cc1nc(Nc2ncc(C(=O)Nc3c(C)cccc3Cl)s2)cc(N2CCN(CCO)CC2)n1 [dasatinib]
How it was run: as §1

[7] = compound: Cc1ncc(-c2ccnc(Nc3ccc(S(C)(=O)=O)cc3)n2)n1C(C)C
How it was run: as §1

[8] = compound: Cn1cc(-c2ccc3c(c2)CCN3C(=O)Cc2cccc(C(F)(F)F)c2)c2c(N)ncnc21
How it was run: as §1

[9] = compound: Cn1cc(-c2ccc3nnc(C(F)(F)c4ccc5ncccc5c4)n3n2)cn1
How it was run: as §1

tipifarnib = compound: Cn1cncc1[C@@](N)(c1ccc(Cl)cc1)c1ccc2c(c1)c(-c1cccc(Cl)c1)cc(=O)n2C [tipifarnib]
How it was run: as §1

mubritinib = compound: FC(F)(F)c1ccc(/C=C/c2nc(COc3ccc(CCCCn4ccnn4)cc3)co2)cc1 [mubritinib]
How it was run: as §1

duvelisib = compound: C[C@H](Nc1ncnc2nc[nH]c12)c1cc2cccc(Cl)c2c(=O)n1-c1ccccc1 [duvelisib]
How it was run: as §1

tozasertib = compound: Cc1cc(Nc2cc(N3CCN(C)CC3)nc(Sc3ccc(NC(=O)C4CC4)cc3)n2)n[nH]1 [tozasertib]
How it was run: as §1

Measured: log2 fold change

NMT2 (UniProt O60551)
inactive: [1] 0.043 | crizotinib -0.187 | [2] 0.059 | [3] 0.018 | gandotinib 0.013 | [4] 0.023 | doramapimod -0.013 | ispinesib -0.167 | bafetinib 0.021 | [5] 0.047 | nilotinib 0.018 | [6] 0.083 | dasatinib -0.088 | [7] -0.031 | [8] -0.003 | [9] 0.03 | tipifarnib -0.015 | mubritinib 0.041

NISCH (UniProt Q9Y2I1)
active: ispinesib -0.408
inactive: [1] -0.026 | crizotinib -0.284 | [2] 0.035 | [3] 0.047 | gandotinib -0.4 | [4] 0.126 | doramapimod 0.054 | bafetinib -0.053 | [5] 0.053 | nilotinib -0.138 | [6] -0.158 | dasatinib -0.233 | [7] -0.324 | [8] -0.002 | [9] -0.02 | tipifarnib -0.03 | mubritinib -0.009

NOA1 (UniProt Q8NC60)
inactive: [1] -0.026 | crizotinib 0.076 | [2] -0.162 | [3] 0.01 | duvelisib 0.032 | gandotinib -0.197 | tozasertib -0.13 | [4] 0.016 | doramapimod 0.047 | ispinesib -0.079 | bafetinib -0.064 | [5] -0.016 | nilotinib -0.108 | [6] -0.024 | dasatinib -0.092 | [7] -0.077 | [8] 0.006 | [9] -0.1 | tipifarnib 0.071 | mubritinib -0.13

NES (UniProt P48681)
inactive: [1] 0.07 | crizotinib 0.108 | [2] -0.233 | [3] 0.536 | duvelisib -0.075 | gandotinib 0.143 | tozasertib 0.246 | [4] 0.037 | doramapimod 0.132 | ispinesib -0.096 | bafetinib -0.292 | [5] -0.05 | dasatinib 0.336 | [8] 0.261 | [9] 0.016 | tipifarnib 0.188 | mubritinib 0.045

NFATC4 isoform 2 (UniProt Q14934)
inactive: [1] 0.001 | crizotinib -0.109 | [2] 0.059 | [3] 0.099 | duvelisib 0.186 | gandotinib -0.148 | tozasertib 0 | [4] -0.016 | doramapimod 0.063 | ispinesib -0.263 | bafetinib 0.041 | [5] -0.05 | dasatinib 0.187 | [8] 0.051 | [9] -0.216 | tipifarnib -0.175 | mubritinib -0.11

NRAS (UniProt P01111)
inactive: [1] 0.05 | crizotinib 0.103 | [2] 0.005 | [3] -0.06 | duvelisib -0.02 | gandotinib -0.04 | tozasertib -0.086 | [4] -0.035 | doramapimod -0.019 | ispinesib 0.048 | bafetinib -0.023 | [5] 0.012 | nilotinib 0.009 | [6] 0.002 | dasatinib 0.03 | [7] -0.007 | [8] 0.054 | [9] 0.031 | tipifarnib 0.001 | mubritinib 0.028

NOMO2 (UniProt Q5JPE7)
inactive: [1] -0.006 | crizotinib 0.001 | [2] -0.021 | [3] 0.017 | duvelisib -0.013 | gandotinib -0.026 | tozasertib 0.019 | [4] 0.017 | doramapimod 0.02 | ispinesib -0.048 | bafetinib -0.009 | [5] -0.01 | nilotinib -0.009 | [6] 0.032 | dasatinib -0.018 | [7] -0.037 | [8] -0.019 | [9] 0.017 | tipifarnib -0.016 | mubritinib -0.024

NOL3 isoform 3 (UniProt O60936)
inactive: [1] -0.209 | crizotinib -0.152 | [2] 0.021 | [3] -0.002 | duvelisib 0.037 | tozasertib -0.212 | [4] -0.033 | doramapimod 0.075 | ispinesib 0.005 | nilotinib -0.05 | [6] -0.123 | dasatinib -0.041 | [7] -0.029 | [8] 0.042 | [9] 0.029 | tipifarnib 0.214 | mubritinib -0.055

NPM1 (UniProt P06748)
inactive: [1] -0.094 | crizotinib 0.005 | [2] -0.311 | [3] 0.299 | duvelisib -0.159 | gandotinib 0.114 | tozasertib 0.001 | [4] -0.009 | doramapimod 0.13 | ispinesib -0.099 | bafetinib 0.233 | [5] -0.073 | nilotinib 0.068 | [6] 0.104 | dasatinib 0.184 | [7] -0.036 | [8] -0.224 | [9] -0.199 | tipifarnib 0.09 | mubritinib -0.166

NPC2 (UniProt P61916)
inactive: [1] -0.009 | crizotinib 0.011 | [2] 0.018 | [3] -0.047 | duvelisib 0.034 | gandotinib 0.08 | tozasertib 0.03 | [4] -0.045 | doramapimod -0.055 | ispinesib 0.002 | bafetinib -0.084 | [5] -0.029 | nilotinib 0.028 | [6] -0.013 | dasatinib 0.054 | [7] -0.009 | [8] 0.035 | [9] 0.028 | tipifarnib 0.016 | mubritinib 0.014

NME1 isoform 2 (UniProt P15531)
inactive: [1] 0.013 | crizotinib 0.012 | [2] 0.161 | [3] 0.01 | gandotinib -0.144 | [4] 0.195 | doramapimod -0.015 | ispinesib 0 | bafetinib 0.011 | [5] -0.175 | nilotinib -0.115 | [6] 0.182 | dasatinib -0.286 | [7] -0.003 | [8] 0.088 | [9] -0.013 | tipifarnib 0.06 | mubritinib -0.103

NHP2 (UniProt Q9NX24)
inactive: [1] -0.13 | crizotinib 0.095 | [2] -0.098 | [3] 0.202 | duvelisib -0.081 | gandotinib 0.076 | tozasertib -0.02 | [4] -0.071 | doramapimod -0.042 | ispinesib 0.066 | bafetinib 0.072 | [5] -0.027 | nilotinib 0.016 | [6] -0.006 | dasatinib 0.193 | [7] 0.067 | [8] -0.123 | [9] -0.021 | tipifarnib 0.039 | mubritinib -0.007

Random excerpt: 2 entries already listed, in no set order.
NME1 isoform 2 (UniProt P15531)
inactive: [1] 0.013 | crizotinib 0.012 | [2] 0.161 | [3] 0.01 | gandotinib -0.144 | [4] 0.195 | doramapimod -0.015 | ispinesib 0 | bafetinib 0.011 | [5] -0.175 | nilotinib -0.115 | [6] 0.182 | dasatinib -0.286 | [7] -0.003 | [8] 0.088 | [9] -0.013 | tipifarnib 0.06 | mubritinib -0.103

NHP2 (UniProt Q9NX24)
inactive: [1] -0.13 | crizotinib 0.095 | [2] -0.098 | [3] 0.202 | duvelisib -0.081 | gandotinib 0.076 | tozasertib -0.02 | [4] -0.071 | doramapimod -0.042 | ispinesib 0.066 | bafetinib 0.072 | [5] -0.027 | nilotinib 0.016 | [6] -0.006 | dasatinib 0.193 | [7] 0.067 | [8] -0.123 | [9] -0.021 | tipifarnib 0.039 | mubritinib -0.007

More records follow:

NGLY1 (UniProt Q96IV0)
inactive: [1] 0.017 | crizotinib -0.079 | [2] -0.01 | [3] 0.093 | gandotinib -0.043 | [4] 0.032 | doramapimod 0.001 | ispinesib -0.059 | bafetinib 0.039 | [5] 0.055 | nilotinib -0.068 | [6] -0.038 | dasatinib -0.064 | [7] 0.021 | [8] -0.009 | [9] -0.034 | tipifarnib -0.067 | mubritinib -0.062

NOP14 (UniProt P78316)
inactive: [1] 0.009 | crizotinib -0.021 | [2] 0.11 | [3] 0.353 | duvelisib -0.083 | gandotinib 0 | tozasertib 0.182 | [4] 0.082 | doramapimod 0.056 | [5] -0.027 | nilotinib -0.173 | [6] 0.052 | dasatinib -0.022 | [7] -0.118 | [8] -0.163 | mubritinib 0.025

NOD1 (UniProt Q9Y239)
inactive: [1] -0.081 | crizotinib 0.291 | [2] -0.269 | [3] 0.311 | duvelisib 0.298 | gandotinib 0.177 | [4] -0.114 | doramapimod -0.033 | ispinesib -0.045 | bafetinib 0.04 | [5] -0.215 | dasatinib 0.05 | [8] -0.048 | [9] 0.047 | tipifarnib 0.192

NOL6 (UniProt Q9H6R4)
inactive: [1] -0.173 | crizotinib 0.081 | [2] -0.023 | [3] 0.463 | duvelisib -0.056 | gandotinib 0.06 | tozasertib 0.149 | [4] 0.098 | doramapimod 0.119 | ispinesib -0.087 | bafetinib 0.1 | [5] -0.116 | dasatinib 0.033 | [8] -0.203 | [9] -0.236 | tipifarnib 0.317 | mubritinib 0.019

NEU1 (UniProt Q99519)
inactive: [1] -0.005 | [2] -0.15 | [3] 0.029 | gandotinib -0.056 | [4] -0.008 | doramapimod 0.155 | bafetinib -0.212 | [5] 0.171 | nilotinib -0.051 | [6] -0.009 | dasatinib 0.019 | [7] -0.147 | [8] -0.04 | [9] 0.01 | tipifarnib 0.072 | mubritinib -0.031
active: crizotinib -0.365 | ispinesib -0.319
